Test [1] deals with T1, SLAH3-YFPn (Arabidopsis thaliana) (UniProt Q9FLV9).
T1 sequence: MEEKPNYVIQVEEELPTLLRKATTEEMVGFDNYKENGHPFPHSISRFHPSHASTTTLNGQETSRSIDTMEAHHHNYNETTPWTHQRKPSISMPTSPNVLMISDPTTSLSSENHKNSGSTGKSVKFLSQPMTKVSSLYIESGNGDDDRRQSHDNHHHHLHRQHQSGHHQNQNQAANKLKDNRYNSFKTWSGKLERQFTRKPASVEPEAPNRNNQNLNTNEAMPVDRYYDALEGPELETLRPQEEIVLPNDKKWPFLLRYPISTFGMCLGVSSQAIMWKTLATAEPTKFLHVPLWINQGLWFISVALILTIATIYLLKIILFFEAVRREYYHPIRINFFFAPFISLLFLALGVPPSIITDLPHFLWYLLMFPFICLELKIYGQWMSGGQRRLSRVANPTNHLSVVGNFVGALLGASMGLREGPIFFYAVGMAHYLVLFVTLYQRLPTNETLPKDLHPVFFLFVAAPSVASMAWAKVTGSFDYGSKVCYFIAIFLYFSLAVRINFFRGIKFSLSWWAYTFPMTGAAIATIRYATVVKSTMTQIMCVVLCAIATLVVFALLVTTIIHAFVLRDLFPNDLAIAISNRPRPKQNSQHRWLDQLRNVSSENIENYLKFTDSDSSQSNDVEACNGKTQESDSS
As to the kind of experiment: split reporter; split-YFP constructs transiently co-expressed in N. benthamiana leaves by agro-infiltration; leaves collected 2 d after infiltration; confocal microscopy.

Sequences of proteins named here, by UniProt entry; tags and fusion partners are left off.
UniProt Q9FIJ0: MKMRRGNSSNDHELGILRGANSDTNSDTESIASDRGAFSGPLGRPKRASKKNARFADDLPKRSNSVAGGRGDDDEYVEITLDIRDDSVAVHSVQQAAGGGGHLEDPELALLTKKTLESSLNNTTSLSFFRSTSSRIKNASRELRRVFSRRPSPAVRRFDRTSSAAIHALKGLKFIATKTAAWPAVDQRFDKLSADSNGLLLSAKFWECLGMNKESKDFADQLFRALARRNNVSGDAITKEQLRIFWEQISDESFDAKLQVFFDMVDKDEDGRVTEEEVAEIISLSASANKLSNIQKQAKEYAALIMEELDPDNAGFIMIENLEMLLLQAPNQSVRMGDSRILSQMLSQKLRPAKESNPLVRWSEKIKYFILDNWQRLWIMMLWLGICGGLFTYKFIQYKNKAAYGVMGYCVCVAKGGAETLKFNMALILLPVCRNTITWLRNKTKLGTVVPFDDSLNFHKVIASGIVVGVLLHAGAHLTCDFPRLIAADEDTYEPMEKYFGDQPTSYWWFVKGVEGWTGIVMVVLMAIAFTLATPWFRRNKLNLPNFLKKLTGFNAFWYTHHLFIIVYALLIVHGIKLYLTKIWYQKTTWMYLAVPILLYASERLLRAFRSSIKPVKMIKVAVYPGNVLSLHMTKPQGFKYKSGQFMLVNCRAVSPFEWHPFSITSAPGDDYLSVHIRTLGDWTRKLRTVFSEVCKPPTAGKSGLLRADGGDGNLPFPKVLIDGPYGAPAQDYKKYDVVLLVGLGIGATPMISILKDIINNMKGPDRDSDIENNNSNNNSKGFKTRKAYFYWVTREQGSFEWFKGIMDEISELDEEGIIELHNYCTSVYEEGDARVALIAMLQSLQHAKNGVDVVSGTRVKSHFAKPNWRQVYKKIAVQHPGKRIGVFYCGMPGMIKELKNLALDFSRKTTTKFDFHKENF

Test [2] concerns the target T2, LYK5-YFPn (Arabidopsis thaliana) (UniProt O22808).
T2 sequence: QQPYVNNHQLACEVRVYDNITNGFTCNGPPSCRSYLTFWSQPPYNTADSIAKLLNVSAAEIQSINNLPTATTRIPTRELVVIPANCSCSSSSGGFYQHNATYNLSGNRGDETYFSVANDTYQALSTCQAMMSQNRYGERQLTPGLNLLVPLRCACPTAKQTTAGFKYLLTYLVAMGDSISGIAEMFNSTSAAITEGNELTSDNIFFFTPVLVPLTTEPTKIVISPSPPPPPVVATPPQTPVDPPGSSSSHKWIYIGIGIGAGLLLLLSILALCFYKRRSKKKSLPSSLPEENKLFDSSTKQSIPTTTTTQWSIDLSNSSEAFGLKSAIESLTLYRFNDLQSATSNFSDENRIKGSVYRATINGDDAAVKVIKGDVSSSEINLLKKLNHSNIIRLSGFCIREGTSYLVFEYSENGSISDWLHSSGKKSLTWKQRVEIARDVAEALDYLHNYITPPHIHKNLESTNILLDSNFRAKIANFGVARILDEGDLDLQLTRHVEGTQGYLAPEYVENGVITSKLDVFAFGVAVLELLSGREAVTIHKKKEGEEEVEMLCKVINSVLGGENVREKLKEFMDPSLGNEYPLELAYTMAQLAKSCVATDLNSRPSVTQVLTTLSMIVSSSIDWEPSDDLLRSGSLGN
The test is described as above.

Test [3] deals with YFPn-RBOHD (Arabidopsis thaliana) (UniProt Q9FIJ0). The description is as above.
For test [4], the target named is T3, SLAH3-FLAG (Arabidopsis thaliana) (UniProt Q9FLV9).
T3 sequence: T1 sequence
As to the kind of experiment: co-IP; SLAH3-FLAG precipitated on FLAG beads (4°C, 2 hr) from extract of infiltrated N. benthamiana leaves; 50 mM Tris-HCl pH 7.5, 150 mM NaCl, 10% glycerol, 0.1% Triton X-100, 0.2% Nonidet P-40; with or without chitin stimulation; blots with anti-FLAG and anti-T7.

No constants are given. Whether binding was seen depends on the method and setting. Binding seen in cells or lysates may run through a third protein. Some binding calls cover weakened binding; strength is not graded here. For some assays here: Tags and fused reporters may be left off the sequences shown.

B1: CERK1^D441V-YFPc (receptor, UniProt A8R7E6 24-617)
chain: KCRTSCPLALASYYLENGTTLSVINQNLNSSIAPYDQINFDPILRYNSNIKDKDRIQMGSRVLVPFPCECQPGDFLGHNFSYSVRQEDTYERVAISNYANLTTMESLQARNPFPATNIPLSATLNVLVNCSCGDESVSKDFGLFVTYPLRPEDSLSSIARSSGVSADILQRYNPGVNFNSGNGIVYVPGRDPNGAFPPFKSSKQDGVGAGVIAGIVIGVIVALLLILFIVYYAYRKNKSKGDSFSSSIPLSTKADHASSTSLQSGGLGGAGVSPGIAAISVDKSVEFSLEELAKATDNFNLSFKIGQGGFGAVYYAELRGEKAAIKKMDMEASKQFLAELKVLTRVHHVNLVRLIGYCVEGSLFLVYEYVENGNLGQHLHGSGREPLPWTKRVQIALDSARGLEYIHEHTVPVYVHRVIKSANILIDQKFRAKVADFGLTKLTEVGGSATRGAMGTFGYMAPETVYGEVSAKVDVYAFGVVLYELISAKGAVVKMTEAVGEFRGLVGVFEESFKETDKEEALRKIIDPRLGDSYPFDSVYKMAELGKACTQENAQLRPSMRYIVVALSTLFSSTGNWDVGNFQNEDLVSLMSGR
Consider B1, for which the figures for the binding result in test [1] and in test [2] were “no binding” and “binds”, respectively.

B2: PBL27-YFPc (enzyme, UniProt Q1PDV6 1-513)
chain: MSGCLPCFGSSAKDAASKDSVKKELSAKDGSVTQSHHISLDKSKSRRGPEQKKELTAPKEGPTAHIAAQTFTFRELAAATKNFRPECLLGEGGFGRVYKGRLETTGQIVAVKQLDRNGLQGNREFLVEVLMLSLLHHPNLVNLIGYCADGDQRLLVYEYMPLGSLEDHLHDLPPDKEPLDWSTRMTIAAGAAKGLEYLHDKANPPVIYRDLKSSNILLGDGYHPKLSDFGLAKLGPVGDKTHVSTRVMGTYGYCAPEYAMTGQLTLKSDVYSFGVVFLELITGRKAIDNARAPGEHNLVAWARPLFKDRRKFPKMADPSLQGRYPMRGLYQALAVAAMCLQEQAATRPLIGDVVTALTYLASQTFDPNAPSGQNSRSGSGPPFIRTRDDRRSLGDGSSLDSPAETRSRLGSPATHKNSPDYRRRDMVREVNAGSEGGSETGGGSGRKWGLSDLEGQESQRGSPASVGRSSRGTPRNRDLDRERAVAEAKVWGENWRERKRATNGPGSFDSTND
Regarding B2, the binding result in test [3] is “no binding”; in test [1], “binds”.

B3: PBL27-T7 (enzyme, UniProt Q1PDV6 1-513)
chain: B2 chain
For the molecule B3, in test [4], the binding entry is reported as “binds”.
